This passage reports binding results from article PMC5902029.

Protein sequences, listed by entry. Tags and fused reporters are not part of them. Residues count along the entry.
UniProt Q5NCH9, residues 24-871: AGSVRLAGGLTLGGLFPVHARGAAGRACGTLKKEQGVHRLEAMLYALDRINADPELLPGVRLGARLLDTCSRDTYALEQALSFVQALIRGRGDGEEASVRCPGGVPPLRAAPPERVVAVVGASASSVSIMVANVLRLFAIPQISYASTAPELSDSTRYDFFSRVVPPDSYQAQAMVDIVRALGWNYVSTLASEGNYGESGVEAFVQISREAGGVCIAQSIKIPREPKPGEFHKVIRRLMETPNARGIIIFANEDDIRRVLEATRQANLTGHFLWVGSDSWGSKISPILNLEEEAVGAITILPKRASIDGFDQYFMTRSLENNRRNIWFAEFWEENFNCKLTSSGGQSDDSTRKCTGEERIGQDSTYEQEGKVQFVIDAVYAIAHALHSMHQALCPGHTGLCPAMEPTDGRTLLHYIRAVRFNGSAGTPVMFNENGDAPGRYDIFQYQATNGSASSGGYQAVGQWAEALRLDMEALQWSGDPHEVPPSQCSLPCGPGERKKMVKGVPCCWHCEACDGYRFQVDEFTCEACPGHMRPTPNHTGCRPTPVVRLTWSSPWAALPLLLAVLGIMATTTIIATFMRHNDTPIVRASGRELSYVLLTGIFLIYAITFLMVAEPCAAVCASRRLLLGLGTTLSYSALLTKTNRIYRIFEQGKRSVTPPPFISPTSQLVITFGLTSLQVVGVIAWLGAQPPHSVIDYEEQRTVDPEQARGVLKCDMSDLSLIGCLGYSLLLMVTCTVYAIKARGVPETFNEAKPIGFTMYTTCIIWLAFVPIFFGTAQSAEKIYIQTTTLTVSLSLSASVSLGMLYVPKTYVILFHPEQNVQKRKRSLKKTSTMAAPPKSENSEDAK

Results are given in words; binding and its absence hold for the method and conditions named. In cells and extracts the contact can be indirect. Here binding means that the protein was enriched with, or labelled near, the bait; the list need not be complete.

For the assay, the target named is mGluR6 (metabotropic glutamate receptor 6), endogenous in mouse retina (mouse (endogenous in retina)) (UniProt Q5NCH9). Kind of assay: affinity purification with mass spectrometry; immunoprecipitation with specific anti-mGluR6 antibodies from membrane fractions of the retina; eluates subjected to mass spectrometry.

B1: LRIT1, endogenous in mouse retina (protein, UniProt Q8K099 22-624)
chain: FCPSECSCSLRILSDGSKARTVVCSDPDLTLPPASIPPDTCKLRLERTAIRRVPGETFRPLSRLEQLWLPYNALSELSALMLRGLRRLRELRLPGNRLVTFPWAALRDTPQLQLLDLQANRLSTLPPEAAHFLENLTFLDLSNNQLMRLPEELLDVWAHLKTGPFLSGHHARLILGLQDNPWVCDCRLYDLVHLLDGWVSSNLIFIEARLRCASPRSLAGVAFSQLELRKCQSPELRPGVTSIISPLGSTVLLRCGATGIPGPEMSWRRANGRPLNGTVHQEVSSDGSSWTLLDLPVVSLFDSGDYICQAKNFLGASETLISLIVTEPQTSTGYSGIPGVLWARTGEGAEAAAYNNKLVARHVPHMPEHVALATKPSMPSIKEELALQNFQMDVPGEFSREPSEHQEAQMVRSLKVVGDTYHSVSLVWKAPQAGNTTAFSVLYAVFGHRDMRRMTVEPGKTSVTIEGLAPKTKYVACVCVRGLVPTKEQCVIFSTDEVVDAEGTQRLINMVVISVAAIIALPPTLLVCCGALRRRCHKCRTGGSAEASGAYVNLERLGHSEDSSEVLSRSSLSEGDRLLSARSSLDSQVLGVRGGRRINEYFC
With B1, the binding result is on record as “binds”.
